# Data as given in PubChem BioAssay AID2551 (National Center for Advancing Translational Sciences (NCATS), 2010).
# Sequences of proteins named here, by UniProt entry; tags and fusion partners are left off. A change or cut given only in a name is not applied to a line headed by its entry.
# UniProt P51450: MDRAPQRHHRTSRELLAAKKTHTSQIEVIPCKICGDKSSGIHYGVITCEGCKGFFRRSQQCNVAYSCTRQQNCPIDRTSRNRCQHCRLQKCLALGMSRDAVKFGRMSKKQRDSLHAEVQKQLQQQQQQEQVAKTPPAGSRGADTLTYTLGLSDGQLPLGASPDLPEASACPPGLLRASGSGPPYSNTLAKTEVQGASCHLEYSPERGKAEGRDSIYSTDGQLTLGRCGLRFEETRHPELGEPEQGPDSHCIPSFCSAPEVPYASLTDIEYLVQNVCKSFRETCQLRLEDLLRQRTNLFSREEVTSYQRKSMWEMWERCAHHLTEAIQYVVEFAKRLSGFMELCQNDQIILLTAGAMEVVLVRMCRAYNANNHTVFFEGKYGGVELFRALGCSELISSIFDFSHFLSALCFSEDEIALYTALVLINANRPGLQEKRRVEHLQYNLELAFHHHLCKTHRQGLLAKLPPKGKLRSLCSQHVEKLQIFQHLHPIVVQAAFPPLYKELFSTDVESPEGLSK
# The campaign covered roughly 310,000 compounds. About 17,000 (5.5%) were called active. Inconclusive means that the source gave no clear call. Such entries were picked first, then a sample of the others. Calls come from the whole dose curve; as a rule, active = well fitted inhibition curve with a large enough effect; inconclusive = small, poorly fitted or top-dose-only effect, or effect the other way; inactive = no such curve, though single readings can be large or run the other way. Potencies of inconclusive entries are doubtful fits and often do not repeat.
# Target: Nuclear receptor ROR-gamma (Mus musculus) (UniProt P51450)
# Test: qHTS for inhibitors of ROR gamma transcriptional activity; note: nearly all actives have a fitted effect of over 60% in size
# Settings: Drosophila S2 Gal4-RORgamma UAS-luciferase reporter, 20 h; series mostly up to 53.6 µM
# How it was run: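 Luciferase reporter read in Schneider cells carrying Gal4-RORγ (mouse) and UAS-Photinus luciferase; cells given compound 1 h before 700 uM copper sulfate induction, then incubated 20 h at ambient temperature.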
# Potency is the fitted concentration of half-maximal effect.
row,SMILES,Potency
1,Cc1cc(C(F)(F)F)nn1CC(=O)NNC(=S)Nc1cccc(Cl)c1,active: 11.2 µM
2,O=C(CCCCCNc1nc(=S)[nH]c2ccccc12)NCCc1ccc(Cl)cc1,"inconclusive: 25.1 µM [inhibitor, single point]"
3,O=C(CSc1nnc(COc2ccc(Cl)cc2)o1)N1c2ccccc2CCc2ccccc21,"inconclusive: 11.2 µM [activator, partial curve]"
4,CCN(C(=O)c1cnc(OC)cc1C(F)(F)F)c1ccc(Cl)cc1Cl,"inconclusive: 12.6 µM [activator, single point]"
5,CCOC(=O)c1nn(-c2ccc(C)c(Cl)c2)c(=O)c(C#N)c1C,"inconclusive: 20 µM [inhibitor, single point]"
6,CCOC(=O)c1ccc(NC(=O)NCc2ccn(CC)n2)cc1,"inconclusive: 11.2 µM [activator, single point]"
7,C/C(N)=C(/C#N)C(=O)CSc1nnc(Nc2c(C)cccc2C)s1,inactive
8,CCOC(=O)/C(C#N)=C/c1cc2ccccc2nc1N1CCCCC1,"inconclusive: 12.6 µM [activator, partial curve]"
9,C=CCNC(=O)COc1ccc(Oc2ccccc2)cc1,inactive
10,CCN(CC)CCn1c(NCc2cccc(OC)c2)nc2ccccc21,active: 5.62 µM
11,CCCC(c1nnnn1CCOC)N(Cc1cc2cc(C)c(C)cc2[nH]c1=O)CC1CCCO1 (configuration not stated),inactive
12,O=C(Nc1cccc(C(F)(F)F)c1)/C(=C/c1ccco1)NC(=O)c1cccs1,inactive
13,O=C(NC(=S)Nc1ncc(Br)cc1Br)c1ccccc1,active: 8.91 µM
14,O=[N+]([O-])c1ccc(NC(=S)N2CCc3ccccc3C2)cc1,"inconclusive: 25.1 µM [inhibitor, single point]"
15,COc1ccc(NCC(=O)Nc2ccc(Cl)cc2C)c(OC)c1,inactive
16,CCOc1ccc2nc(N3CCOCC3)nc(C)c2c1,"inconclusive: 2.82 µM [activator, partial curve]"
17,COc1cc(/C=C/C(=O)OCC(=O)NC(=O)NC(C)C)ccc1OCC#N,inactive
18,Cn1c(-c2cccc3ccccc23)n[nH]c1=S,active: 10 µM
19,CCCN(Cc1cc2cc(C)ccc2[nH]c1=O)C(=O)c1cccc(OC)c1,"inconclusive: 35.5 µM [activator, single point]"
20,O=c1c(-c2ccccc2)nc2cnc(N3CCOCC3)nc2n1C1CC1,inactive
21,CN(C(=O)COC(=O)c1cccnc1Nc1cccc(C(F)(F)F)c1)C1CCS(=O)(=O)C1 (configuration not stated),"inconclusive: 11.2 µM [activator, partial curve]"
22,C/C(=N\NC(=O)c1cc(Cl)ccc1O)c1ccc(Br)s1,active: 6.31 µM
23,O=C(NC(=S)NCc1ccccc1)c1ccc2c(c1)OCO2,active: 7.94 µM
24,Cc1ccc(C(=O)Nc2cccc(C(F)(F)F)c2)cc1NC(=O)c1nccnc1N,inactive

# 14 entries from above, with bars between the fields:
row | SMILES | Potency
2 | O=C(CCCCCNc1nc(=S)[nH]c2ccccc12)NCCc1ccc(Cl)cc1 | inconclusive: 25.1 µM [inhibitor, single point]
3 | O=C(CSc1nnc(COc2ccc(Cl)cc2)o1)N1c2ccccc2CCc2ccccc21 | inconclusive: 11.2 µM [activator, partial curve]
4 | CCN(C(=O)c1cnc(OC)cc1C(F)(F)F)c1ccc(Cl)cc1Cl | inconclusive: 12.6 µM [activator, single point]
5 | CCOC(=O)c1nn(-c2ccc(C)c(Cl)c2)c(=O)c(C#N)c1C | inconclusive: 20 µM [inhibitor, single point]
6 | CCOC(=O)c1ccc(NC(=O)NCc2ccn(CC)n2)cc1 | inconclusive: 11.2 µM [activator, single point]
7 | C/C(N)=C(/C#N)C(=O)CSc1nnc(Nc2c(C)cccc2C)s1 | inactive
8 | CCOC(=O)/C(C#N)=C/c1cc2ccccc2nc1N1CCCCC1 | inconclusive: 12.6 µM [activator, partial curve]
9 | C=CCNC(=O)COc1ccc(Oc2ccccc2)cc1 | inactive
10 | CCN(CC)CCn1c(NCc2cccc(OC)c2)nc2ccccc21 | active: 5.62 µM
11 | CCCC(c1nnnn1CCOC)N(Cc1cc2cc(C)c(C)cc2[nH]c1=O)CC1CCCO1 (configuration not stated) | inactive
12 | O=C(Nc1cccc(C(F)(F)F)c1)/C(=C/c1ccco1)NC(=O)c1cccs1 | inactive
13 | O=C(NC(=S)Nc1ncc(Br)cc1Br)c1ccccc1 | active: 8.91 µM
14 | O=[N+]([O-])c1ccc(NC(=S)N2CCc3ccccc3C2)cc1 | inconclusive: 25.1 µM [inhibitor, single point]
15 | COc1ccc(NCC(=O)Nc2ccc(Cl)cc2C)c(OC)c1 | inactive

# Later entries:

row,SMILES,Potency
1,Cc1ccc(S(=O)(=O)N2CCC(C(=O)NNS(=O)(=O)c3ccc(Cl)cc3)CC2)cc1,"inconclusive: 6.31 µM [activator, full curve, poor fit]"
2,CCN(CC)S(=O)(=O)c1ccc(N2CCOCC2)c(NC(=S)NC(=O)c2ccco2)c1,"inconclusive: 15.8 µM [inhibitor, single point]"
3,Fc1ccc(-c2csc(Nc3ccccn3)n2)cc1,"inconclusive: 35.5 µM [inhibitor, single point]"
4,CS(=O)(=O)N(CCc1ccccc1)CC(=O)Nc1ccc2c(c1)OCO2,inactive
5,O=C(/C(=C/c1ccc(Cl)cc1)c1nc2ccccc2[nH]1)c1cccs1,active: 3.16 µM
6,C/C(=N\O)C1/C(=N/O)CC2C1C2(C)C (configuration not stated),inactive
7,CCCCCC1CC(CC(C)C(=O)Nc2nncs2)C(=O)O1 (configuration not stated),"inconclusive: 17.8 µM [activator, single point]"
8,O=C(CSc1nc2ccccc2o1)NCc1ccc2c(c1)OCO2,inactive
9,Cc1ccc(CNS(=O)(=O)c2c(C)[nH]c(C)c2C(=O)N2CCCCC2)cc1,inactive
10,CC(=O)Nc1ccc(S(=O)(=O)Oc2ccccc2N2CCCCC2)cc1,"inconclusive: 31.6 µM [inhibitor, single point]"
11,CCOc1ccc(C(Nc2ccc(C)cc2)P2(=O)OCCC(C)O2)cc1 (configuration not stated),"inconclusive: 12.6 µM [activator, partial curve]"
12,COc1ccc(C(=O)NNC2CC(=O)N(Cc3ccc(Cl)cc3)C2=O)cc1OC (configuration not stated),"inconclusive: 35.5 µM [inhibitor, single point]"
13,CCCCN1C(=O)/C(=C/C=C2\SCCN2C)SC1=S,"inconclusive: 14.1 µM [activator, partial curve, poor fit]"
14,Cc1cccc(N2C(=O)CC(N(O)c3ccccc3)C2=O)c1 (configuration not stated),"inconclusive: 11.2 µM [activator, partial curve, poor fit]"
15,Cc1ccccc1Cn1cc(S(=O)(=O)CC(=O)Nc2nccs2)c2ccccc21,"inconclusive: 35.5 µM [inhibitor, single point]"
16,CC(C(=O)N1CCN(Cc2ccc3c(c2)OCO3)CC1)c1ccc([N+](=O)[O-])cc1 (configuration not stated),"inconclusive: 8.91 µM [activator, partial curve]"
17,CCn1cc(C(=O)NC(C)CCc2ccccc2)c(=O)c2cc(S(=O)(=O)N(C)C)ccc21 (configuration not stated),inactive
18,CCN(CC)CCCNC(=O)c1ccc(C)c(NC(=O)C2=C(C)OCCS2)c1,inactive
19,CNc1nc(SC)nc(N(C#N)CC(=O)OC)n1,"inconclusive: 0.316 µM [inhibitor, partial curve, poor fit]"
20,Cc1nc(C)c(C(=O)N2CCCC(C(=O)c3ccc(Cl)cc3C)C2)s1 (configuration not stated),"inconclusive: 10 µM [activator, partial curve, poor fit]"
21,COc1ccc(/C=C2\SC(=O)N(CC(=O)Nc3cccc(C)c3)C2=O)cc1O,"inconclusive: 35.5 µM [inhibitor, single point]"
22,CC(C)C[C@H](NC(=O)c1nc[nH]c1C(=O)N1CCC(C)CC1)C(=O)OCc1ccccc1,"inconclusive: 35.5 µM [inhibitor, single point]"
23,Cc1cc(C)c(NC(=O)CSc2ccc(-c3ccccn3)nn2)c(C)c1,inactive
